Data on 1 molecule can be found in PMC6450497.

The chains behind the UniProt entries cited, without tags or fusion partners. Residues count along the entry.
UniProt P19490, residues 19-907: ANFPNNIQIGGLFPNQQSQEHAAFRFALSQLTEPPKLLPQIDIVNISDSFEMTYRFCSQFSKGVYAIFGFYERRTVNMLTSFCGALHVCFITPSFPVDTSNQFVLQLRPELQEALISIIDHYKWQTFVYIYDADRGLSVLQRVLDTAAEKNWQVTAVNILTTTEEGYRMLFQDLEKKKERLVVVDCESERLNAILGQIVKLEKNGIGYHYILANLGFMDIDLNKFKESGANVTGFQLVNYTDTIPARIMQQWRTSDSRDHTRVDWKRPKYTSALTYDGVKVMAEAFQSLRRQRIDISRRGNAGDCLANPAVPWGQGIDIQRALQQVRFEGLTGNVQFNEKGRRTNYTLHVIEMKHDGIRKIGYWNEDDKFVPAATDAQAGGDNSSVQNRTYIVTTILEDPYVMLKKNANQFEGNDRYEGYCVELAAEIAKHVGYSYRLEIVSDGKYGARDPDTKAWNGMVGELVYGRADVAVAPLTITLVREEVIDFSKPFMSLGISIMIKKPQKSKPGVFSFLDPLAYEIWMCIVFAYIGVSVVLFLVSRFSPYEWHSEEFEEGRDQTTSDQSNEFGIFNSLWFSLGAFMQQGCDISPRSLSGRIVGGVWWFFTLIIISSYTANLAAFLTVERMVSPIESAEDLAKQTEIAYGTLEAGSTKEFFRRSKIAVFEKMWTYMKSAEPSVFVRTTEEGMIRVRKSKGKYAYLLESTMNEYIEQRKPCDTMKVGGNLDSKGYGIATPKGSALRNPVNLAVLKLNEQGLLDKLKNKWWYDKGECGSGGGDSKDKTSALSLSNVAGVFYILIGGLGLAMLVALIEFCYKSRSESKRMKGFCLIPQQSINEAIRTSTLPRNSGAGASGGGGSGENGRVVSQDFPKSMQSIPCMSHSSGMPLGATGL

No constants are given. Whether binding was seen depends on the method and setting. Binding seen in cells or lysates may run through a third protein. Some entries that bind do so weakly or less than the wild type.

The target in the experiment is GluR1 expressed from pCI-SEP-GluR1 in HEK293T cells (UniProt P19490). Description: co-IP; anti-C-GluR1 antibody on 2 mg pre-cleared lysate of HEK293T cells transfected with pCI-SEP-GluR1 and pCMV6 FKBP5 or empty vector, with or without 100 µM AMPA for 10 min before harvest; overnight 4°C, Protein A Dynabeads; rabbit IgG as control.

B1: FK506-binding protein 51 (FKBP51) expressed from pCMV6 FKBP5 in HEK293T cells (protein, UniProt Q13451 1-457)
chain: MTTDEGAKNNEESPTATVAEQGEDITSKKDRGVLKIVKRVGNGEETPMIGDKVYVHYKGKLSNGKKFDSSHDRNEPFVFSLGKGQVIKAWDIGVATMKKGEICHLLCKPEYAYGSAGSLPKIPSNATLFFEIELLDFKGEDLFEDGGIIRRTKRKGEGYSNPNEGATVEIHLEGRCGGRMFDCRDVAFTVGEGEDHDIPIGIDKALEKMQREEQCILYLGPRYGFGEAGKPKFGIEPNAELIYEVTLKSFEKAKESWEMDTKEKLEQAAIVKEKGTVYFKGGKYMQAVIQYGKIVSWLEMEYGLSEKESKASESFLLAAFLNLAMCYLKLREYTKAVECCDKALGLDSANEKGLYRRGEAQLLMNEFESAKGDFEKVLEVNPQNKAARLQISMCQKKAKEHNERDRRIYANMFKKFAEQDAKEEANKAMGKKTSEGVTNEKGTDSQAMEEEKPEGHV
Turning to B1, the binding entry was “binds”.
